The DeepSol protein solubility set

Test: soluble on expression in E. coli; label from the status in PepcDB or PDB records

Sequence | soluble on expression in E. coli
AAGEIDESLYSRQLYVLGKEAMLKMQTSNVLILGLKGLGVEIAKNVVLAGVKSMTVFDPEPVQLADLSTQFFLTEKDIGQKRGDVTRAKLAELNAYVPVNVLDSLDDVTQLSQFQVVVATDTVSLEDKVKINEFCHSSGIRFISSETRGLFGNTFVDLGDEFTVLDPTGEEPRTGMVSDIEPDGTVTMLDDNRHGLEDGNFVRFSEVEGLDKLNDGTLFKVEVLGPFAFRIGSVKEYGEYKKGGIFTEVKVPRKISFKSLKQQLSNPEFVFSDFAKFDRAAQLHLGFQALHQFAVRHNGELPRTMNDEDANELIKLVTDLSVQQPEVLGEGVDVNEDLIKELSYQARGDIPGVVAFFGGLVAQEVLKACSGKFTPLKQFMYFDSLESLPDPKNFPRNEKTTQPVNSRYDNQIAVFGLDFQKKIANSKVFLVGSGAIGCEMLKNWALLGLGSGSDGYIVVTDNDSIEKSNLNRQFLFRPKDVGKNKSEVAAEAVCAMNPDLKGKINAKIDKVGPETEEIFNDSFWESLDFVTNALDNVDARTYVDRRCVFYRKPLLESGTLGTKGNTQVIIPRLTESYSSSRDPPEKSIPLCTLRSFPNKIDHTIAWAKSLFQGYFTDSAENVNMYLTQPNFVEQTLKQSGDVKGVLESISDSLSSKPHNFEDCIKWARLEFEKKFNHDIKQLLFNFPKDAKTSNGEPFWSGAKRAPTPLEFDIYNNDHFHFVVAGASLRAYNYGIKSDDSNSKPNVDEYKSVIDHMIIPEFTPNANLKIQVNDDDPDPNANAANGSDEIDQLVSSLPDPSTLAGFKLEPVDFEKDDDTNHHIEFITACSNCRAQNYFIETADRQKTKFIAGRIIPAIATTTSLVTGLVNLELYKLIDNKTDIEQYKNGFVNLALPFFGFSEPIASPKGEYNNKKYDKIWDRFDIKGDIKLSDLIEHFEKDEGLEITMLSYGVSLLYASFFPPKKLKERLNLPITQLVKLVTKKDIPAHVSTMILEICADDKEGEDVEVPFITIHL | soluble
CTCVPPHPQTAFCNSDLVIRAKFVGTPEVAQTTLYQRYEIKMTKMYKGFQALGDAADIRFVYTPAMESVCGYFHRSHARSEEFLIAGKLQDGLLHITTCSFVAPWNSLSLAQRRGFTKTYTVGCEECTVFPCLSIPCKLQSGTHCLWTDQLLQGSEKGFQSRHLACLPREPGLCTWQSLRSQIA | soluble
EQLLPDLLISPHMLPLTDLEIKFQYRGRPPRALTISNPHGCRLFYSQLEATQEQVELFGPISLEQVRFPSPEDIPSDKQRFYTNQLLDVLDRGLILQLQGQDLYAIRLCQCKVFWSGPCASAHDSCPNPIQREVKTKLFSLEHFLNELILFQKGQTNTPPPFEIFFCFGEEWPDRKPREKKLITVQVVPVAARLLLEMFSGELSWSADDIRLQISNPDLKDRMVEQFKELHHIWQSQQRLQPVAQA | soluble
MANKKVTFREDVKSPAIRKLKQKLTPLKIKKGRGKIQKHIQKTLQKMKEEEESENQSPGTTVEETLTEENISTDKEETSKLENKPKKTRKTSGETIAQKKSRETVGVEVLKTSEGSSKMLGFHVSAAGGLEQAIYNARAEGCRSFAMFVRNQRTWNHKPMSEEVVENWWKAVRETNFPLDQIVPHGSYLMNAGSPEAEKLEKSRLAMLDECQRAEKLGITMYNFHPGSTVGKCEKEECMTTIAETIDFVVEKTENIILVLETMAGQGNSIGGTFEELKFIIDKVKVKSRVGVCIDTCHIFAGGYDIRTQKAYEEVMKNFGEVVGWNYLKAIHINDSKGDVGSKLDRHEHIGQGKIGKAAFELLMNDNRLDGIPMILETPEGKYPEEMMIMYNMDKR | not soluble
MDINKFTIKLQEALAEAQSYAFQQKATEFTSAHILKALLEQNDSVAISILSVCGVNIQNFIKAVNDMVDSVAVLSGEGNPQVTPSRDLIATLHKMQGLANKNGDEFISSEVFLLASLEDKSLTGLYNKFGITKEKLTKAVNDYRGGEKVSSQNQEDMKGALDKYTVDLTDLARKGKIDPIIGRDSEIRRTIQVLQRRTKNNPVLIGEPGVGKTAIVEGLAQRIVNDEVPEGVKGKKVLSLDMGALLAGAKFRGDFEERLKSVLKELSKQEGNVILFIDELHTMVGAGKAEGSMDAGNMLKPALARGELKCVGATTLDEYREYVEKDPALERRFQKVLVDEPTVEDTIAILRGLKERYELHHGVNITDSAIVSAATLSHRYITDRQLPDKAIDLVDEAASQIRMEIDSKPEKMESLYRRIIQLKMQREQLKKEKDDATKKRLEILEQEIKGLDSEYKGLEELWKAEKLKMQGTSKLKEELEKAKFELEKYQRVGDLSKMAELQYGKIPELEAQIKQIEETEAEPSENKLVRTSVTENEIADVVSKATGIPVSKMMEGEKDKLLNMESFLHKRVIGQDQAIKAVSNAVRRSRSGLSDPNRPIGSFMFLGPTGVGKTELTKALAEFLFDDEDAMLRVDMSEFMEKHSVARLIGAPPGYVGYEQGGYLTEHVRRKPYSVILLDEVEKAHADIFNILLQVLDDGRLTDGQGRTVDFKNTVIVMTSNLGSHRIQEMQGQDYETVKSAVMEMVLSHFRPEFVNRVDDAIVFEPLNKEMITEIAKIQIKRLEKRLADLSIGLEVTTGAMDKLADAGFDPVFGARPLKRAIQNNLENPLALKLLDGEFKAEDKIVVDIDANNNIIFSK | soluble
MDLGIQGKLAVVTAGSSGLGFASALELARNGARLLLFSRNREKLEAAASRIASLVSGAQVDIVAGDIREPGDIDRLFEKARDLGGADILVYSTGGPRPGRFMELGVEDWDESYRLLARSAVWVGRRAAEQMVEKGWGRMVYIGSVTLLRPWQDLALSNIMRLPVIGVVRTLALELAPHGVTVNAVLPSLILTDRVRSLAEERARRSGITVEEALKSMASRIPMGRVGKPEELASVVAFLASEKASFITGAVIPVDGGAHI | soluble
MGDIKNFLYAWCGKRKMTPAYEIRAVGNKNRQKFMCEVRVEGFNYAGMGNSTNKKDAQSNAARDFVNYLVRINEVKSEEVPAVGIVPPPPILSDTSDSTASAAEGLPAPMGGPLPPHLALKAEAENNSGVESSGYGSPGPTWDRGANLKDYYSRKEEQEVQATLESEEVDLNAGLHGNWTLENAKARLNQYFQKEKIQGEYKYTQVGPDHNGSFIAEMTIYIKQLGRRIFAREHGSNKKLAAQSCALSLVRQLYHLGVIEAYSG | soluble
MGHHHHHHSHMDLLRLSRLFSGPRPLGLSVLQHLDLVGSTRWTGGREGPERLRAAFCGSSSPLPLGSGNQKEMSSLCSDSSKLSTVAPQEEAEEESFGSLSGKFSSRRIFHKSTAQLYNLQLKEQGGEEEELEPRPWRGRRNTQYWYFFQCKRLIKEGKLAEALDLFERQMLKEERLQPLECNYTVLIGGCGRVGYLKKAFRLFNDMKKRDLEPSDATYTALFNVCAESPWKDSALQSALKLRQQLQARNFQLNLKTYHALLKVAAKCADLRLCLDVFKEIIQRGHAVTEETFCFLLVGCIQDKKTGFRQAMQVWRQMLSLGIKPSRHGYNLLLEAARDCGLGDPEVASRLLLTSQEENILLPPPKGRHMAGRKVQAKTVHGVSLRHVEALERQLFLEPSQKLEGPPALPEARVTSRTQPEVETTAEPGHTVALTPLAPKPTHLELEVSLLSLGTLSPAVVSFGTVATPADRLALMGGLEGFLGKMTEHGLQPDIKTLTLLAEVVEPGSAAESSLLSVLDRHRVEADVTFFNTLIRKKSKLGDLEGAKALLPILAKKGIVPNLRTFCNLAIGCHRPRDGMQLLADMKKSQVSPNIHIYSTLINAALKKLDYTYLISILKDMRQNSVPVNEVVVRQLEFAAEYPPTFDRYKGKNTYLEKIDGFRAYYKQWLKAMPAEEAPHPW | soluble
MGSDKIHHHHHHKGHFSLDHAPVSDVDSMQAAYSVSRPSGAVLGYYTRQDVPFYHALADHYVLFDHFHQAMFGGSTGNALFLAAARTCQDPKTPREWRVPKDMSYVDLPYDQAGYLINNLPPLQGPTDEGGGFWDHVPPPAQDYYGPSARVPALLVSAWTRPGYVDHRIVDTTSILRRIETRFQLPPLNERDAAAYALTDGLDFSGKVRDPAFI | not soluble
MGSDKIHHHHHHMPGPPRSLEMGLLTFRDVAIEFSLEEWQHLDIAQQNLYRNVMLENYRNLAFLGIAVSKPDLITCLEQGKEPWNMKRHEMVDEPPGMCPHFAQGLWPEQGMEDSFQKAILRRYGKYGHENLQLRKGCKSVDEYKVNKEGYNGLNQCFTTAQSKVFQCDKYLKVFYKFLNSNRPKIRHTEKKSFKCKKRVKLFCMLSHKTQHKSIYHREKSYKCKECGKTFNWSSTLTNHRKIYTEEKPYKCEEYNKSPKQLSTLTTHEIIHAGEKLYKCEECGEAFNRSSNLTTHKIIHTGEKPYKCEECGKAFIWSSTLTEHKKIHTRKKPYKCEECGKAFIWSSTLTRHKRMHTGEKPYKCEECGKAFSQSSTLTTHKIIHTGEKRYKCLECGKAFKQLSTLTTHKIIHVGEKLYKCEECGKGFNRSSNLTTHKIIHTGEKPYKCEECGKAFIWSSTLTKHKRIHTREKPYKCEECGKAFIWSSTLTRHKRMHTGEKPYKCEECGKSFSQSSTLTTHKIIHTGEKPYKCEECGKAFNWSSTLTKHNIIHTEEKPYKCEKCGKAFKQSSILTNHKRIHTGEKPYKCEECGKSFNRSSTFTKHKVIHTGVKPYKCEECGKAFFWSSTLTKHKRIHTGEQPYKWEKFGKAFNRSSHLTTDKITHWREILQV | not soluble
MLALHQDPVKRKLIQQQFVLLLHAHKCSQREKENNEFAARNQLLPHAACTLPHCSTMKEVLIHMTNCNVGRLCHFAHCASSRQIIAHWKDCSREDCPVCKPLKGIQDTPLQFSLPDVISLIGANGNSYGSADGEVIHQIGSSAMSVGEGGHQSRTNQETETNRQNQSQQPLMDINVQLNAEELELAFAELMKNPQLFHD | not soluble
MNIQSTIKAVAETISTGPIPGSRKVYQAGELFPELRVPFREVAVHPSANEPPVTIYDPSGPYSDPAIQIDIEKGLPRTREALVVARGDVEEVADPRQVKPEDNGFAQGKHLAPEFPDTGRKIYRAKPGKLVTQLEYARAGIITAEMEYVAIRENLRREQDRPCVRDGEDFGASIPDFVTPEFVRQEIARGRAIIPANINHGELEPMAIGRNFLVKINANIGNSAVLSTVADEVDKLVWATRWGADTVMDLSTGRNIHNIRDWIIRNSSVPIGTVPIYQALEKVNGVAEDLNWEVFRDTLIEQCEQGVDYFTIHAGVRLPFIPMTAKRVTGIVSRGGSIMAKWCLAHHKENFLYERFDEICEIMRAYDVSFSLGDGLRPGSTADANDEAQFSELRTLGELTKVAWKHGVQVMIEGPGHVAMHKIKANMDEQLKHCHEAPFYTLGPLTTDIAPGYDHITSAIGAAMIGWFGTAMLCYVTPKEHLGLPDRDDVKTGVITYKLAAHAADLAKGHPGAAMWDDAISRARFEFRWEDQFNLGLDPETARKFHDETLPKEAHKTAHFCSMCGPKFCSMKISQEVRDFAAGKAPNSAELGMAEMSEKFREQGSEIYLKTE | soluble
MNKVDQKFQGSVSFKDVTVGFTQEEWQHLDPSQRALYRDVMLENYSNLVSVGYCAHKPEVIFRLEQGEEPWRLEEEFPSQSFPGSSWLWWFPRLSLFWMTLTVWRNPGEKSGQLIT | not soluble
MQETTVKRDGASPSDAGTPATTAQGLGKLYIRTFGCQMNEYDSDKMADVLRADQGLELTDNPEDADVILFNTCSVREKAQEKVFSDLGRVQHLKKQNPNLVIGVGGCVASQEGEAIVKRAPYVDVVFGPQTLHRLPDLIKRRRAQGVSQVDISFPEIEKFDALPPPRVDGATAFVSIMEGCSKYCSFCVVPYTRGEEVSRPFDDVLLEVADLADQGVKEVTLLGQNVNAYRGAMGDSGEIADFAMLLEYVHEIPGIERIRYTTSHPKEMTQRMVDAYARLPKLVSFLHLPVQAGSDRVLAAMKRGYTALEFKSVVRRLRAARPSLTLSSDFIVGFPGETEEDFQKTMKLIEDVGFDTSFSFVYSRRPGTPAADLHDDTPQDVKLRRLQQLQALINQQAAAIAQGMIGTRQRVLVEGPSRRDPNELMGRTENNRIVNFPGVPRLIGHMVDVVVTHAHTNSLRGRVAGIERDTSGAE | soluble
